# The supplement of paper PMC12889115
# The other results are listed elsewhere or left out. These are raw signals, not scaled to a control.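 Primary screen: polymyxin B was added at a level permeabilizing Salmonella outer membranes while sparing inner membranes. DMSO wells, both with and without polymyxin B, established maximum growth. Plate-to-plate variation meant each plate was ranked on its own, and the lowest-OD600 compounds were selected as hits.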
# Test system: Salmonella enterica serovar Typhimurium SL1344
# Experiment: bacterial growth OD600 after 18 h with compound and polymyxin B; higher = more bacterial growth (less inhibition)
# Details: 50 µM, Mueller-Hinton broth
Compound,bacterial growth OD600 (polymyxin B 0.75 µg/mL),bacterial growth OD600 (polymyxin B 1 µg/mL)
COc1ccc(CC2(CCC(=O)N3CCCC(c4ccccc4)C3)CCC(=O)N2)c2ccccc12 (stereo not given),0.041,–
O=C(Cn1nnnc1CN1CCCC1)NCCCN1CCCc2ccccc21,0.74,–
CCCc1cc(C(=O)N2CCC(C3(CC)NC(=O)N(Cc4ccc5c(c4)OCO5)C3=O)CC2)n(C)n1 (stereo not given),0.741,–
O=C(NC1CCCC1)c1ccc(N2CCC(NCc3cccc(C(F)(F)F)c3)CC2)cc1,0.004,–
CC(NC(=O)c1cccc(OC2CCN(C(=O)C3CC3)CC2)c1)c1ccc(F)cc1 (stereo not given),–,0.923
COc1ccccc1CNC(=O)c1c(OC)cc(=O)n2c1CCN(Cc1ccc(C)c(C)c1)CC2,0.731,–
COc1ccc(CN2CCN(Cc3cccc(F)c3)CC2CCO)cc1C (stereo not given),–,0.873
CCC(O)C1CCN(C(=O)CC2(c3ccccc3Cl)CC(=O)N(C3CCCC3)C2=O)CC1 (stereo not given),0.568,–
Cc1ccccc1-n1cc(CN(C)C(=O)Cn2nnnc2CN2CCC(C)CC2)cn1,0.643,–
Cc1ccccc1N1CCC(N2CCN(CC3CCCCC3)C(CCO)C2)CC1 (stereo not given),–,0.886
O=C1CCCN1CCC(=O)N1CCCC(CCc2cccc(C(F)(F)F)c2)C1 (stereo not given),0.464,–
COc1ccc(OCc2nc(C(=O)NC(C)(C)C)co2)cc1,–,0.868
O=C(NC1CCCC1)c1ccc(OC2CCN(C(=O)C3CCCO3)CC2)c(Cl)c1 (stereo not given),–,0.889
Cc1ccc(S(=O)(=O)N2CCCC(CNC(=O)c3ccco3)C2)s1 (stereo not given),0.832,–
Cc1ccccc1CC(=O)N1CCC(CCC(=O)NC2CC2)CC1,–,0.958
CC#CCN1C(=O)NC(CCc2ccccc2)(C2CCN(C(=O)/C=C/c3cccc(F)c3)CC2)C1=O (stereo not given),0.009,–
COc1cc(C)ccc1OCc1nc(C(=O)N(C)Cc2ccc(F)cc2)co1,0.51,–
O=C(NCc1nc(NCCCc2ccccc2)c2ccccc2n1)c1c(F)cccc1Cl,0.753,–
CC(=O)c1ccccc1-c1ccc2c(c1)CC(CNC(=O)Cc1cccc(C)c1)O2 (stereo not given),0.004,–
COc1ccccc1CNC(=O)c1c(OC)cc(=O)n2c1CCN(Cc1cc(C)cc(C)c1)CC2,0.744,–
COc1ccccc1-c1cn2c(C(=O)N(C)C(C)c3ccccn3)csc2n1 (stereo not given),0.789,–
CCOc1ccc(CN2CCN(Cc3ccc(C)cc3)CC2CCO)cc1 (stereo not given),–,0.814
OC1CCCN(CCNc2nc3nonc3nc2N2CCCCC2)C1 (stereo not given),0.824,–
Cc1csc(CNC(=O)c2cc(COc3ccc4c(c3)OCO4)[nH]n2)n1,–,0.822
CCC1CN(C(=O)c2ccc(NCCc3cccc(C)n3)nc2)CCN1C(C)C (stereo not given),0.764,–
COc1cc(CC2(CCC(=O)N3CCN(c4ccc(C)cc4C)CC3)CCC(=O)N2)ccc1F (stereo not given),0.038,–
CCCCn1c(CN2C[C@@H](C)O[C@@H](C)C2)cnc1S(=O)(=O)C1CCCCC1,–,0.884
O=C(NC1CCCN(c2ncccn2)C1)c1sccc1Cl (stereo not given),–,0.787
CCO[C@H]1[C@H](NC(=O)c2cccnc2)c2ccccc2C12CCN(C(=O)CCc1cnn(C)c1)CC2,0.831,–
Cc1ccccc1CC(C1CCN(C(=O)C(C)Oc2ccccc2)CC1)N(C)C(=O)Cn1cccn1 (stereo not given),0.855,–

# Reformatted with bars between the fields: 2 of the compounds above
Compound | bacterial growth OD600 (polymyxin B 0.75 µg/mL) | bacterial growth OD600 (polymyxin B 1 µg/mL)
O=C(NCc1nc(NCCCc2ccccc2)c2ccccc2n1)c1c(F)cccc1Cl | 0.753 | –
CC(=O)c1ccccc1-c1ccc2c(c1)CC(CNC(=O)Cc1cccc(C)c1)O2 (stereo not given) | 0.004 | –
